In publication PMC12663635:
Results are given in words; binding and its absence hold for the method and conditions named. Binding seen in cells or lysates may run through a third protein. Some results given as binding are weak or reduced against the parent protein; the word gives no strength.

Amino acid sequences for entries named in this document (tags omitted). Residues count along the entry.
UniProt P98161, residues 24-4303: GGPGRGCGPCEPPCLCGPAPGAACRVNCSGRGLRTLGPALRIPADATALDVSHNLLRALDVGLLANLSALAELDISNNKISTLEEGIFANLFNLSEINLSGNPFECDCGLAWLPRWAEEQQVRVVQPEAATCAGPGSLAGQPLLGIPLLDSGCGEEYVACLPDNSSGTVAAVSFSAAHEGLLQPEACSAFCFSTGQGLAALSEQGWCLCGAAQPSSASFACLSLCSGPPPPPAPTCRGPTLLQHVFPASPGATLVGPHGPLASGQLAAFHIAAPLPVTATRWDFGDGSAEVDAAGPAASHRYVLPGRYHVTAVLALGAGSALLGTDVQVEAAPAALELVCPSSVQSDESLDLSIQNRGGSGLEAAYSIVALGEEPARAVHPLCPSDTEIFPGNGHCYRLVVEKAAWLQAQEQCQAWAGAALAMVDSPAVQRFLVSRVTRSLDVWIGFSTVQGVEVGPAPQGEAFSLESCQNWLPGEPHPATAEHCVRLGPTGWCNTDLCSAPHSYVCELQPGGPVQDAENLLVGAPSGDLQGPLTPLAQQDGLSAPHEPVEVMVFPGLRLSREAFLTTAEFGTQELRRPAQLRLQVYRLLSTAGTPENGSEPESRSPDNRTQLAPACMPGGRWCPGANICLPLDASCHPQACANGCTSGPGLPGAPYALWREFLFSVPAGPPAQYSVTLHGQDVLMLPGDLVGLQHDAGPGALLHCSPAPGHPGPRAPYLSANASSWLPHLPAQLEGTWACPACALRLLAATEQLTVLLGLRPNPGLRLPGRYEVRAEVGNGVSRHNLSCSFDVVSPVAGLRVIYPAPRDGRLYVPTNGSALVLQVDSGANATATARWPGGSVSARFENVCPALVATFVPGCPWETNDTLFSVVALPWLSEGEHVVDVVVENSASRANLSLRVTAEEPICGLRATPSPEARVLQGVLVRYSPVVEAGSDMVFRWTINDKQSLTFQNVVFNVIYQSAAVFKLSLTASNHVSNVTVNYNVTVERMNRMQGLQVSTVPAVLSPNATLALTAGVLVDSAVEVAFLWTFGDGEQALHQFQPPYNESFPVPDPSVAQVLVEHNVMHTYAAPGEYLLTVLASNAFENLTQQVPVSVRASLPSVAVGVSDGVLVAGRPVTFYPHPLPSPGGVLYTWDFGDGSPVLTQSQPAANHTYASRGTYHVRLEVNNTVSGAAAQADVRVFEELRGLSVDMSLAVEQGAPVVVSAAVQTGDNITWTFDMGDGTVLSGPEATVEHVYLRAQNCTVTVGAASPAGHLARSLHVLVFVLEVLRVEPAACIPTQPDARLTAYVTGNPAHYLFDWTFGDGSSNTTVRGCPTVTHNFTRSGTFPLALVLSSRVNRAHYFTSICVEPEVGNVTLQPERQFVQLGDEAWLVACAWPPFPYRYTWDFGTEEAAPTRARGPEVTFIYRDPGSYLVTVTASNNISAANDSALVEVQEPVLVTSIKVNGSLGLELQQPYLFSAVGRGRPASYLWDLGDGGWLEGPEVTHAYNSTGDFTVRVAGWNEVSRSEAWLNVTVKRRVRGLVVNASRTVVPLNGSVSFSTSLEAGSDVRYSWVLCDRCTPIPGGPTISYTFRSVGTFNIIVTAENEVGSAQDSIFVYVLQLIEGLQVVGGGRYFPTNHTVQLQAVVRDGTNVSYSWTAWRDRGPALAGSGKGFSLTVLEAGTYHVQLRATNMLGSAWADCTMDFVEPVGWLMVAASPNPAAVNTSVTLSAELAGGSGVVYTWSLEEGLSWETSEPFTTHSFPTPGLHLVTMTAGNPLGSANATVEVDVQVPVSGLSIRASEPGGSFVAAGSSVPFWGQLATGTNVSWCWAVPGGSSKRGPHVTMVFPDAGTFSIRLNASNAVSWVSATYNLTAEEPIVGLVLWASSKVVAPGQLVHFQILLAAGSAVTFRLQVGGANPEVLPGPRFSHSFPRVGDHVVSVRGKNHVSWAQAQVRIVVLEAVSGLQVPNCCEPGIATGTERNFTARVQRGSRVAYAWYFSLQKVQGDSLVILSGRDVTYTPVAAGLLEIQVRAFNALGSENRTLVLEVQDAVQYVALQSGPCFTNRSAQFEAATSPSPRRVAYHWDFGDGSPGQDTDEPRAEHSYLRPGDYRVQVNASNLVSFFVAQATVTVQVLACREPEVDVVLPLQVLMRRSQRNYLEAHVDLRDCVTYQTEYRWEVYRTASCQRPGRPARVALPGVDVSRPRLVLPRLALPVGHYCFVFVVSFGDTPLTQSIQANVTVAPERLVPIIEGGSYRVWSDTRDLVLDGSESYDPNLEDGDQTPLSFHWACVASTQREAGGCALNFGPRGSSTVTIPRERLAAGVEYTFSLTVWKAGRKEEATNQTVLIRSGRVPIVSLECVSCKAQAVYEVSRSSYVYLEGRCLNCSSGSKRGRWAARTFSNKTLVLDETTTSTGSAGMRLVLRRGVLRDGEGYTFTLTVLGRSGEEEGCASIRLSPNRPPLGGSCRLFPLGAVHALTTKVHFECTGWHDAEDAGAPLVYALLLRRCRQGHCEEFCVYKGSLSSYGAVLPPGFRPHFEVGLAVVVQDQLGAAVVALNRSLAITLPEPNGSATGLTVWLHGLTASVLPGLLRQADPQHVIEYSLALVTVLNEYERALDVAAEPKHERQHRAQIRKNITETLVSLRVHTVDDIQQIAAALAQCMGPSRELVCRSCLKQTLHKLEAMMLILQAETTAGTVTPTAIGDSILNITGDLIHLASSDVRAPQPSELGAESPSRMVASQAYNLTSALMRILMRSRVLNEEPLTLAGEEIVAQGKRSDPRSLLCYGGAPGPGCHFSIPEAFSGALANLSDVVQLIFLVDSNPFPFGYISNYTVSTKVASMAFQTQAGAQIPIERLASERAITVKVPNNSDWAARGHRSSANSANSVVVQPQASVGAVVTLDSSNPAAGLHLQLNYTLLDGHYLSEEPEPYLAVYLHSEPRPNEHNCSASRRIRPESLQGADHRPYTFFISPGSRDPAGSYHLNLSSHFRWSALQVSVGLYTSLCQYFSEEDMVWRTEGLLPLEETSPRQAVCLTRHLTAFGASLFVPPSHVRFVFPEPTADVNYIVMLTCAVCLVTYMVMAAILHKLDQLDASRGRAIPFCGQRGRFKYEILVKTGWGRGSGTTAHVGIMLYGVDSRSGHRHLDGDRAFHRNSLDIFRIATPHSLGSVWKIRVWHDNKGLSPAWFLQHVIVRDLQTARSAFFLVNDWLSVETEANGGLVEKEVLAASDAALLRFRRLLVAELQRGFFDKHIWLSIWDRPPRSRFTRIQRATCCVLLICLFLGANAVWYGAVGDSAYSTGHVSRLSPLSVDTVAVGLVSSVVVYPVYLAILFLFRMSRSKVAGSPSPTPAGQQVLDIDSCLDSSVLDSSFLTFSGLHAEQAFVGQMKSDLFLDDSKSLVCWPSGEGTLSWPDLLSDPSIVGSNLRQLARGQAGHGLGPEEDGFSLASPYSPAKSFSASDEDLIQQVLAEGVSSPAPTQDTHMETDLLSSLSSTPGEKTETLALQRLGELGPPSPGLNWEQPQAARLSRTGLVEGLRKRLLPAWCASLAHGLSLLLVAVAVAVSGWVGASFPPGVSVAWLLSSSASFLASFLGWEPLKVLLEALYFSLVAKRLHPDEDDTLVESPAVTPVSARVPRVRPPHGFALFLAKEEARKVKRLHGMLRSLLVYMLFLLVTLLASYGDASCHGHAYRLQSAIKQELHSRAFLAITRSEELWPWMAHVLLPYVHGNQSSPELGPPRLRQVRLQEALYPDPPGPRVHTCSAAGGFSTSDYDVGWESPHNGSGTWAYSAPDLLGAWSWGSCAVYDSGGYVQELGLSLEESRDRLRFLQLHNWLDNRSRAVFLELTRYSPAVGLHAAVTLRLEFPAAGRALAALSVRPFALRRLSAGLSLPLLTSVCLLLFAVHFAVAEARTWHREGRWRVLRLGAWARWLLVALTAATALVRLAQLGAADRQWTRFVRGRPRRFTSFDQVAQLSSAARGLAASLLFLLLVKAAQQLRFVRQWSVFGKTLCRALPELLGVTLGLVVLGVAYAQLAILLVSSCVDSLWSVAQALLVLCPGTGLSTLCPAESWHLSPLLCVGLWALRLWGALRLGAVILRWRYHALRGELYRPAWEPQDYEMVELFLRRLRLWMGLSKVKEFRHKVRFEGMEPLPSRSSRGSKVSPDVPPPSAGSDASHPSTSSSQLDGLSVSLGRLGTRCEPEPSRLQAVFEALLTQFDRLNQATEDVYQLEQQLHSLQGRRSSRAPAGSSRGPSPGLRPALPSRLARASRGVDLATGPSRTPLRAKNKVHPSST

Target: polycystin-1 (human (endogenous in NHPTK)) (UniProt P98161)
Assay: proximity ligation; Duolink PLA in fixed NHPTK RECs with antibodies to the endogenous proteins; non-starved cells (PC1+ARL13B also in ciliated cells); PLA signal per cell

B1: BLOC1S1 (protein, UniProt P78537 1-153)
chain: MAPGSRGERSSFRSRRGPGVPSPQPDVTMLSRLLKEHQAKQNERKELQEKRRREAITAATCLTEALVDHLNVGVAQAYMNQRKLDHEVKTLQVQAAQFAKQTGQWIGMVENFNQALKEIGDVENWARSIELDMRTIATALEYVYKGQLQSAPS
Question: For B1, which binding is on record?
Answer: binds

B2: SNAPIN (protein, UniProt O95295 1-136)
chain: MAGAGSAAVSGAGTPVAGPTGRDLFAEGLLEFLRPAVQQLDSHVHAVRESQVELREQIDNLATELCRINEDQKVALDLDPYVKKLLNARRRVVLVNNILQNAQERLRRLNHSVAKETARRRAMLDSGIYPPGSPGK
Question: Which binding does the source give for B2 here?
Answer: binds
